The values below come from paper PMC4567348.

Data set [1] deals with GST-HbCBF1 (Hevea brasiliensis) (UniProt Q4KP31). The experiment in a line: competition EMSA. Conditions: 125-fold molar excess cold competitor vs COR15a probe; 10 mM Tris-HCl pH 7.5, 100 mM KCl, 10% glycerol, 1 mM DTT, 0.1% NP-40, 1 mM spermidine, 0.5 ug fish sperm DNA, 4 ug protein, 1 ng probe, 25 C; recombinant protein; residues 1-231; protein details: N-terminal GST (pGEX-6p-1); label: none (competitor). (Mobility shift assays separate free from complexed probe on a gel.)

Another data set has as its system GST. The experiment in a line: EMSA. The settings on record: 10 mM Tris-HCl pH 7.5, 100 mM KCl, 10% glycerol, 1 mM DTT, 0.1% NP-40, 1 mM spermidine, 0.5 ug fish sperm DNA, 4 ug protein, 1 ng probe, 25 C; recombinant protein; protein details: GST.

Negatives hold for the conditions tested. For some of these results: At least one verdict was read from the data and is not stated in words by the source. For some of these results: For at least one entry, the source does not settle the construct or the ends of the probe.

With “TTTCAAGAATTCACTGCTTTTTT (double strand) [M1]”, the binding result in data set [1] is reported as “no binding”.

In the case of “TTTCATGGAATCACTGCTTTTTT (double strand) [M3]”, in data set [1], the binding result is “no binding”. As for “TTTCATGGCCGACCTGCTTTTTT (double strand) [COR15a]”, in the data set on GST, the binding result was “no binding”. Consider “TTTCATGGTATGTCTGCTTTTTT (double strand) [M2]”, for which the binding result in data set [1] is listed as “no binding”.
